The source of these data is patent publication US5432260A, “High affinity mannose receptor ligands” (Washington University, priority 1991, dated 1995).

Chains of the proteins cited; added tags and fusions are not shown. Residues count along the entry.
UniProt P22897, 19-1456 limits assumed: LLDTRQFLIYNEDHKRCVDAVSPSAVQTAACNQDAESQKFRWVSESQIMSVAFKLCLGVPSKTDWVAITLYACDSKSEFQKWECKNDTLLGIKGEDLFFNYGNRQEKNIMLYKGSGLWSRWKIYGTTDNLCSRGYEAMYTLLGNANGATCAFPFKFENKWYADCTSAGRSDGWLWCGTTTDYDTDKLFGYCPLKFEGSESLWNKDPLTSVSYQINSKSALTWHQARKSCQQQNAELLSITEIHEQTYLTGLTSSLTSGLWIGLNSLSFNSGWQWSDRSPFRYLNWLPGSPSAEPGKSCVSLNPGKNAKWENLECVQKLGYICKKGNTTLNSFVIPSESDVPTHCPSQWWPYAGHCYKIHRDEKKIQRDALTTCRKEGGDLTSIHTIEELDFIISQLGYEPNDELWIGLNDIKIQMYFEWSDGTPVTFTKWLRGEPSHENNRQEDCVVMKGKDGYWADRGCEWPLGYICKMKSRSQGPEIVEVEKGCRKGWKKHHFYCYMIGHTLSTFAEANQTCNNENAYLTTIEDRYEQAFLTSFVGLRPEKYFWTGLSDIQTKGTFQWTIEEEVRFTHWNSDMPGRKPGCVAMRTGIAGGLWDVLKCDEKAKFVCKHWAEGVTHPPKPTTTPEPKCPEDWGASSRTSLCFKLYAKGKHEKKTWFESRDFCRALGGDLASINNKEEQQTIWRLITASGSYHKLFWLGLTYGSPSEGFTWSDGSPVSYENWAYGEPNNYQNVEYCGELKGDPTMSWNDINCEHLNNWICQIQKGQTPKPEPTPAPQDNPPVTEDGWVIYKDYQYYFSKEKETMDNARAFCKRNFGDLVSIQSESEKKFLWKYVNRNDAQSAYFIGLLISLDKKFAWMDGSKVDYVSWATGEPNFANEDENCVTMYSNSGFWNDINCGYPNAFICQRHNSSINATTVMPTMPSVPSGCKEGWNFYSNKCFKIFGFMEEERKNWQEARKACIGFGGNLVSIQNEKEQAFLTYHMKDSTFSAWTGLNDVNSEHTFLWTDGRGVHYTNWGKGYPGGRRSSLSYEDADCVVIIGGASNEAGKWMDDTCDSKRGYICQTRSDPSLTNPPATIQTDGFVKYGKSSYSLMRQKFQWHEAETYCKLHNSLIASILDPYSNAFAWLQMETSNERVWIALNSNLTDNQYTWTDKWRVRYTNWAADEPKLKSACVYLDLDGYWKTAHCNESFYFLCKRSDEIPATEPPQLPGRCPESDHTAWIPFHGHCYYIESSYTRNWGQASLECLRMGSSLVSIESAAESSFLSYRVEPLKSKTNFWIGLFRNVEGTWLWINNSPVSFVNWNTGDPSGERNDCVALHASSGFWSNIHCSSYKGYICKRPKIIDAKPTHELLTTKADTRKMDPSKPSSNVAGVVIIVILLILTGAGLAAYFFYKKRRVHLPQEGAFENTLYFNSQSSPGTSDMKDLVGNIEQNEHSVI

SMILES strings stand for the structures. The match of structure and compound is tentative.

This test addresses purified mannose receptor (Homo sapiens, UniProt P22897). The test can be described thus: Competition of 125I-mannose-BSA binding to isolated mannose receptor on beads. Conditions: read-out: IC50 (concentration effecting 50% inhibition of 125I-mannose-BSA binding to mannose receptor); 125I-mannose-BSA 2 nM, 37° C., 15 minutes. How it is done:
The assay measures the ability of the test compound to inhibit the binding of ^125 I-mannose-BSA, prepared as described, to isolated mannose receptor. To prepare solid supported receptor protein A-sepharose (IgG-SORB) is incubated with rabbit anti-human mannose receptor antiserum for 20 minutes at room temperature. The beads are then washed by sedimentation 3 times in Tris-buffered saline containing 1% Triton X-100, 1% BSA and 15 mM CaCl2 (assay buffer). The beads are then suspended in an assay buffer and purified mannose receptor (Lennartz, M. R. et al., J Biol Chem (1987) 262:9942-9944 (supra)) is added, followed by incubation for 30 minutes at 37° C. The beads are washed again three times to remove unbound receptor.
In the assay, the receptor-linked beads are resuspended in a total volume of 100 μL assay buffer containing 0.1 μCi ^125 I-mannose-BSA (2 nM) prepared according to (Stahl, P. et al., Cell (1980) (supra)) with and without test compound. […] The cpm of ^125 I-mannose-BSA remaining in the […] is determined, and the percent inhibition of test compound at various concentrations calculated. […] Nonspecific binding of ligand to beads is determined by adding excess yeast mannan to parallel assays and accounted for in the calculations. […]

As to `OC[C@H]1O[C@H](O[C@H]2[C@H](O)[C@H](O)[C@@H](O[C@H]3[C@H](O)[C@H](O)[C@@H](O[C@H]4[C@H](O)[C@H](O)[C@@H](O[C@H]5[C@H](O)[C@H](O)[C@@H](O[C@H]6[C@H](O)[C@H](O)[C@@H](O[C@H]7[C@H](O)[C@H](O)[C@@H](O[C@H]8[C@H](O)[C@H](O)[C@@H](O[C@H]9[C@H](O)[C@H](O)[C@@H](O[C@H]%10[C@H](O)[C@H](O)[C@@H](O[C@H]%11[C@H](O)[C@H](O)[C@@H](O[C@H]%12[C@H](O)[C@H](O)[C@@H](O[C@H]%13[C@H](O)[C@H](O)C(O)O[C@@H]%13CO)O[C@@H]%12CO)O[C@@H]%11CO)O[C@@H]%10CO)O[C@@H]9CO)O[C@@H]8CO)O[C@@H]7CO)O[C@@H]6CO)O[C@@H]5CO)O[C@@H]4CO)O[C@@H]3CO)O[C@@H]2CO)[C@@H](O)[C@@H](O)[C@@H]1O` (stereo partly shown), the IC50 turned out to be 10 µM.
